Paper PMC12296510
Read-outs that look alike come from different tables or passages of the source. No constants are given. Whether binding was seen depends on the method and setting. Binding seen in cells or lysates may run through a third protein. A yes stands for co-enrichment or nearness to the bait. Other partners may have been found. Blank lines part the entries; values can stand above or below the molecule they belong to.

Amino acid sequences for entries named in this document (tags omitted).
UniProt P67775: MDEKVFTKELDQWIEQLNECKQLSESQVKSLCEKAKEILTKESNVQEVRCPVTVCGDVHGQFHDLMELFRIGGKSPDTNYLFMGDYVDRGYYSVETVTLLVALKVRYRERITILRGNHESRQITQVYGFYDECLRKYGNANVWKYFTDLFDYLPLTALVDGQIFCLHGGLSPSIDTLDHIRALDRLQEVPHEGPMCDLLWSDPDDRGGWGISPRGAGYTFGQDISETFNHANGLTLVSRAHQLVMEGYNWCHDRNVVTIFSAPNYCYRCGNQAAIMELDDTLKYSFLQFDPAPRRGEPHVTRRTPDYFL
UniProt P62136: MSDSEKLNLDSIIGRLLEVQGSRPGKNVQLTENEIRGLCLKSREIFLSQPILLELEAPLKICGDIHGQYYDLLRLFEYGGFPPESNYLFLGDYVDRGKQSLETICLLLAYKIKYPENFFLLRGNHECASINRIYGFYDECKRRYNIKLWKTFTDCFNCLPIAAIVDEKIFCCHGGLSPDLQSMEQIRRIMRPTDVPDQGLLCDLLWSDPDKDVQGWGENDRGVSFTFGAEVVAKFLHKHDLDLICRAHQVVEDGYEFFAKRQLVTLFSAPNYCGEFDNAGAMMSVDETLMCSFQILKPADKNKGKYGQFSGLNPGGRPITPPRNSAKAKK
UniProt Q16537: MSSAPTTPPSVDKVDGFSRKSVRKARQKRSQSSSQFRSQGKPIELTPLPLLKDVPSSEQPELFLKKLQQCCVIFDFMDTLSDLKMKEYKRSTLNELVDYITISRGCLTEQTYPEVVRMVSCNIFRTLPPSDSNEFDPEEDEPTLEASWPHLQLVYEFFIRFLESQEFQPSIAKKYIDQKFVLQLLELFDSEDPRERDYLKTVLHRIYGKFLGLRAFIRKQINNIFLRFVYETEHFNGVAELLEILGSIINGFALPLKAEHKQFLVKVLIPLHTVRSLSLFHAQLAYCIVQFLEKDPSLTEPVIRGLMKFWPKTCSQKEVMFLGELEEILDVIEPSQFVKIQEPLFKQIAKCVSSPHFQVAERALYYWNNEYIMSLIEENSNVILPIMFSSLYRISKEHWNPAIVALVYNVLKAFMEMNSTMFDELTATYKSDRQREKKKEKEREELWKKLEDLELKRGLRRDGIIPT
UniProt P62714: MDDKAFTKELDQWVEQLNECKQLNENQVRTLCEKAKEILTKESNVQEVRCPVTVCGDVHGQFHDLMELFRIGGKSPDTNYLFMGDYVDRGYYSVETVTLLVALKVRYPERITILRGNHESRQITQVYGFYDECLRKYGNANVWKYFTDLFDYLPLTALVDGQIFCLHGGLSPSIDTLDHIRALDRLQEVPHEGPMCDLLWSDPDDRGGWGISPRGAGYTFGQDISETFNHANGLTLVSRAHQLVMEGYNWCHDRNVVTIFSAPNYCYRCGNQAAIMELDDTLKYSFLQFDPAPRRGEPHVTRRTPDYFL
UniProt P30153: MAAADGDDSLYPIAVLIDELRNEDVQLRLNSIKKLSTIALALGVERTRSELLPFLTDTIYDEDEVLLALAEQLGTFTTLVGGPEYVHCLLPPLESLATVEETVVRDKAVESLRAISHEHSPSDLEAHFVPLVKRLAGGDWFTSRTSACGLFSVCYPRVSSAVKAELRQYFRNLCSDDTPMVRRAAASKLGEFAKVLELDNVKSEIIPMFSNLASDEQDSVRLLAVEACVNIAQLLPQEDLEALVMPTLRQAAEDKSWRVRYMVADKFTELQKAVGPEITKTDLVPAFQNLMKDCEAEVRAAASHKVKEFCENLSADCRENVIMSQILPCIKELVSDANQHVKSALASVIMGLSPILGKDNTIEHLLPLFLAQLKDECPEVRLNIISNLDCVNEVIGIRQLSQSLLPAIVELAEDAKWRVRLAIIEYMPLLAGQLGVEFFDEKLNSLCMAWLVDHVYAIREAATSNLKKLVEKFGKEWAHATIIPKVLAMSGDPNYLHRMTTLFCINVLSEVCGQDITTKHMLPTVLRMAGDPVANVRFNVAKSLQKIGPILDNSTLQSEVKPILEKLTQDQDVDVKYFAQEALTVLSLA
UniProt P30154: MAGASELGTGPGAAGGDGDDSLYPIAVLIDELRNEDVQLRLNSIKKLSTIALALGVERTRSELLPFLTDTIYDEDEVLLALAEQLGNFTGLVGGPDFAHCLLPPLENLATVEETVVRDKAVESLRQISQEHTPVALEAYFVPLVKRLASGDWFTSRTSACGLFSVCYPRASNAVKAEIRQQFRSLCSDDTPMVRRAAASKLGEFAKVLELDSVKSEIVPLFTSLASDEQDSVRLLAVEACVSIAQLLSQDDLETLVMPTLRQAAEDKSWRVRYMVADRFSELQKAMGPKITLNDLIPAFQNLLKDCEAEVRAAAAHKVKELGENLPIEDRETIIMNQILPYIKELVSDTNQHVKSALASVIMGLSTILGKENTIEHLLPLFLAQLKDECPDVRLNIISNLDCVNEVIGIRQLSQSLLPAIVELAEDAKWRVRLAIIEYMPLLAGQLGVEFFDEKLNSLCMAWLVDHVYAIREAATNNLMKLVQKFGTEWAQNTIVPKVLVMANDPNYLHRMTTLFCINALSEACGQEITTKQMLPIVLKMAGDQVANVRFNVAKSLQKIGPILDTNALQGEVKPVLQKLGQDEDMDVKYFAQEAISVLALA

Columns and labels:
Assay in all cases: affinity purification with mass spectrometry; StrepHA-tagged bait from doxycycline-induced, HBSS-starved HeLa cells; lysis in modified RIPA (150 mM NaCl, 50 mM Tris-HCl pH 8, 1% NP-40, 0.1% sodium deoxycholate); Strep-Tactin XT-4Flow beads overnight at 4°C; elution with 100 mM biotin; quantitative MS, n = 3, preparations compared with each other (PPP2CA or PPP2R5E against PPP1CA)
StrepHA-PPP2CA [1] = molecular target: StrepHA-PPP2CA (UniProt P67775)
[2] = molecular target: StrepHA-PPP1CA (human (cDNA from HEK293 RNA)) (UniProt P62136)
[3] = molecular target: StrepHA-PPP2R5E (human (cDNA from HEK293 RNA)) (UniProt Q16537)
StrepHA-PPP2CA [4] = molecular target: StrepHA-PPP2CA (UniProt P67775); remark: listed apart in the source

binding [2]: binds
binding [3]: binds
Molecule: PPP2CA (endogenous) (from UniProt P67775 1-309) (enzyme)

binding [3]: binds
Molecule: PPP2CB (from UniProt P62714 1-309) (enzyme)

binding [3]: binds
Molecule: PPP2R1A (from UniProt P30153 1-589)

The remaining lines, values behind:

Molecule: PPP1CA (endogenous) (from UniProt P62136 1-330) (enzyme)
binding (StrepHA-PPP2CA [1]): binds

Molecule: PPP2R1B (from UniProt P30154 1-601)
binding (StrepHA-PPP2CA [1]): binds
binding [3]: binds

B1: PPP2R2D (protein, UniProt Q66LE6 1-453)
chain: MAGAGGGGCPAGGNDFQWCFSQVKGAIDEDVAEADIISTVEFNYSGDLLATGDKGGRVVIFQREQENKSRPHSRGEYNVYSTFQSHEPEFDYLKSLEIEEKINKIRWLPQQNAAHFLLSTNDKTIKLWKISERDKRAEGYNLKDEDGRLRDPFRITALRVPILKPMDLMVEASPRRIFANAHTYHINSISVNSDHETYLSADDLRINLWHLEITDRSFNIVDIKPANMEELTEVITAAEFHPHQCNVFVYSSSKGTIRLCDMRSSALCDRHSKFFEEPEDPSSRSFFSEIISSISDVKFSHSGRYMMTRDYLSVKVWDLNMESRPVETHQVHEYLRSKLCSLYENDCIFDKFECCWNGSDSAIMTGSYNNFFRMFDRDTRRDVTLEASRESSKPRASLKPRKVCTGGKRRKDEISVDSLDFNKKILHTAWHPVDNVIAVAATNNLYIFQDKIN
binding (StrepHA-PPP2CA [4]): binds
